Experimental data published in PMC8899846.
Numbering of substitutions follows the chain as printed. Results are given in words; binding and its absence hold for the method and conditions named. Binding seen in cells or lysates may run through a third protein. Some results given as binding are weak or reduced against the parent protein; the word gives no strength. Where a sequence is shown, tags or fusion partners need not be part of it.

The chains behind the UniProt entries cited, without tags or fusion partners. Residues count along the entry.
UniProt O75460, residues 19-977: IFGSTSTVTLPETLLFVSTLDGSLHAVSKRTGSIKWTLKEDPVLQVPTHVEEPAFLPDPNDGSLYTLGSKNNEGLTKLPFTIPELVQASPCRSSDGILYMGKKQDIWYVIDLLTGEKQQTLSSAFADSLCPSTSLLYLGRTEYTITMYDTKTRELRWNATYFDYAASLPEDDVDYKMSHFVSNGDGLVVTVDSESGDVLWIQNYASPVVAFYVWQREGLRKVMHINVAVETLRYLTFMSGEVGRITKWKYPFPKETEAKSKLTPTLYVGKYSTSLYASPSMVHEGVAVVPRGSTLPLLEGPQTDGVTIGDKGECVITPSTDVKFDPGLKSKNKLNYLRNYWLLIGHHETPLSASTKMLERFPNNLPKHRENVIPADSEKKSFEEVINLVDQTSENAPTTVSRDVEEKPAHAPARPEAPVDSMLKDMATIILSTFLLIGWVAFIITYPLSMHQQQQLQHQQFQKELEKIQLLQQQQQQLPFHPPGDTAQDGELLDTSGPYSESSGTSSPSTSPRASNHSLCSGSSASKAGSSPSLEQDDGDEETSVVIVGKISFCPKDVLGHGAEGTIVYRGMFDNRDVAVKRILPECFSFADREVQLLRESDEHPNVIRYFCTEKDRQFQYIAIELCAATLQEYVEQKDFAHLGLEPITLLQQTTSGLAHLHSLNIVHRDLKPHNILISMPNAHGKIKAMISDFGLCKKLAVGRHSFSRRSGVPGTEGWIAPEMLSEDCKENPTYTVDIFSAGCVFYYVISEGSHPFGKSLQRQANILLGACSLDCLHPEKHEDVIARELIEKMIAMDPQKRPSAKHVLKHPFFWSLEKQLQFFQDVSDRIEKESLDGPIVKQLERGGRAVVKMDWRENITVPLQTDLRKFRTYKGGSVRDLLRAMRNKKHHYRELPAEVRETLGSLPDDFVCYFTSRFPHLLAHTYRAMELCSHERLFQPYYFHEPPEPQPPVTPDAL

How the values were obtained:
Y306F RtcB-Flag (mouse) = biological target: T1, Y306F RtcB-Flag (mouse) (UniProt Q99LF4); assay: co-IP; HEK293T co-transfected with 1 ug wt IRE1α and 1 ug WT or mutant RtcB-Flag plasmid, lysed 24 h later; CHAPS buffer (30 mM Tris-HCl pH 7.5, 150 mM NaCl, 1.5% CHAPS); IP with anti-Flag antibody, Dynabeads protein G; immunoblot with anti-IRE1α
T1 sequence: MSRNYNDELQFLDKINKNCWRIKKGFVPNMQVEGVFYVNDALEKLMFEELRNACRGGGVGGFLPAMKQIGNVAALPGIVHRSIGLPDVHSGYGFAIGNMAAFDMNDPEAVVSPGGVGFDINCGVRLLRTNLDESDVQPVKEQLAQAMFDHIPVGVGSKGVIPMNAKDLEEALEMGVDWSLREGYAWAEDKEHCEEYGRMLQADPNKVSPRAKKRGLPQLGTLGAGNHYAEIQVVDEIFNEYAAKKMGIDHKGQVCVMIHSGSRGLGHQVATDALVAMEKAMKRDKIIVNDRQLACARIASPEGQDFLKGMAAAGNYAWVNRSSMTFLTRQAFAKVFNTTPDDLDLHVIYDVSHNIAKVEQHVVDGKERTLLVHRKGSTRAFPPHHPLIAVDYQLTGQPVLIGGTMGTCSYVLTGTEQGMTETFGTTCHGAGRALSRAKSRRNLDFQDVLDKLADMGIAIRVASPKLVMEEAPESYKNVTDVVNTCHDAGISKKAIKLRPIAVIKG

[1] = biological target: T2, wt mouse RtcB-Flag (pCMV3-mRTCB-Flag) (mouse) (UniProt Q99LF4); assay: as above
T2 sequence: T1 sequence with F306Y

IRE1-WT (inositol-requiring enzyme 1 alpha; pCDH-CMV-IRE1α-EF1-Puro-copGFP) (from UniProt O75460 19-977)
binding (Y306F RtcB-Flag (mouse)): binds | binding [1]: binds
